Results are given in words; binding and its absence hold for the method and conditions named. Binding seen in cells or lysates may run through a third protein. Here binding means that the protein was enriched with, or labelled near, the bait; the list need not be complete.
Target: TurboID-Mask (Drosophila) (UniProt Q9VCA8)
Experiment: proximity labelling

Sequences of proteins named here, by UniProt entry; tags and fusion partners are left off.
UniProt Q9VCA8: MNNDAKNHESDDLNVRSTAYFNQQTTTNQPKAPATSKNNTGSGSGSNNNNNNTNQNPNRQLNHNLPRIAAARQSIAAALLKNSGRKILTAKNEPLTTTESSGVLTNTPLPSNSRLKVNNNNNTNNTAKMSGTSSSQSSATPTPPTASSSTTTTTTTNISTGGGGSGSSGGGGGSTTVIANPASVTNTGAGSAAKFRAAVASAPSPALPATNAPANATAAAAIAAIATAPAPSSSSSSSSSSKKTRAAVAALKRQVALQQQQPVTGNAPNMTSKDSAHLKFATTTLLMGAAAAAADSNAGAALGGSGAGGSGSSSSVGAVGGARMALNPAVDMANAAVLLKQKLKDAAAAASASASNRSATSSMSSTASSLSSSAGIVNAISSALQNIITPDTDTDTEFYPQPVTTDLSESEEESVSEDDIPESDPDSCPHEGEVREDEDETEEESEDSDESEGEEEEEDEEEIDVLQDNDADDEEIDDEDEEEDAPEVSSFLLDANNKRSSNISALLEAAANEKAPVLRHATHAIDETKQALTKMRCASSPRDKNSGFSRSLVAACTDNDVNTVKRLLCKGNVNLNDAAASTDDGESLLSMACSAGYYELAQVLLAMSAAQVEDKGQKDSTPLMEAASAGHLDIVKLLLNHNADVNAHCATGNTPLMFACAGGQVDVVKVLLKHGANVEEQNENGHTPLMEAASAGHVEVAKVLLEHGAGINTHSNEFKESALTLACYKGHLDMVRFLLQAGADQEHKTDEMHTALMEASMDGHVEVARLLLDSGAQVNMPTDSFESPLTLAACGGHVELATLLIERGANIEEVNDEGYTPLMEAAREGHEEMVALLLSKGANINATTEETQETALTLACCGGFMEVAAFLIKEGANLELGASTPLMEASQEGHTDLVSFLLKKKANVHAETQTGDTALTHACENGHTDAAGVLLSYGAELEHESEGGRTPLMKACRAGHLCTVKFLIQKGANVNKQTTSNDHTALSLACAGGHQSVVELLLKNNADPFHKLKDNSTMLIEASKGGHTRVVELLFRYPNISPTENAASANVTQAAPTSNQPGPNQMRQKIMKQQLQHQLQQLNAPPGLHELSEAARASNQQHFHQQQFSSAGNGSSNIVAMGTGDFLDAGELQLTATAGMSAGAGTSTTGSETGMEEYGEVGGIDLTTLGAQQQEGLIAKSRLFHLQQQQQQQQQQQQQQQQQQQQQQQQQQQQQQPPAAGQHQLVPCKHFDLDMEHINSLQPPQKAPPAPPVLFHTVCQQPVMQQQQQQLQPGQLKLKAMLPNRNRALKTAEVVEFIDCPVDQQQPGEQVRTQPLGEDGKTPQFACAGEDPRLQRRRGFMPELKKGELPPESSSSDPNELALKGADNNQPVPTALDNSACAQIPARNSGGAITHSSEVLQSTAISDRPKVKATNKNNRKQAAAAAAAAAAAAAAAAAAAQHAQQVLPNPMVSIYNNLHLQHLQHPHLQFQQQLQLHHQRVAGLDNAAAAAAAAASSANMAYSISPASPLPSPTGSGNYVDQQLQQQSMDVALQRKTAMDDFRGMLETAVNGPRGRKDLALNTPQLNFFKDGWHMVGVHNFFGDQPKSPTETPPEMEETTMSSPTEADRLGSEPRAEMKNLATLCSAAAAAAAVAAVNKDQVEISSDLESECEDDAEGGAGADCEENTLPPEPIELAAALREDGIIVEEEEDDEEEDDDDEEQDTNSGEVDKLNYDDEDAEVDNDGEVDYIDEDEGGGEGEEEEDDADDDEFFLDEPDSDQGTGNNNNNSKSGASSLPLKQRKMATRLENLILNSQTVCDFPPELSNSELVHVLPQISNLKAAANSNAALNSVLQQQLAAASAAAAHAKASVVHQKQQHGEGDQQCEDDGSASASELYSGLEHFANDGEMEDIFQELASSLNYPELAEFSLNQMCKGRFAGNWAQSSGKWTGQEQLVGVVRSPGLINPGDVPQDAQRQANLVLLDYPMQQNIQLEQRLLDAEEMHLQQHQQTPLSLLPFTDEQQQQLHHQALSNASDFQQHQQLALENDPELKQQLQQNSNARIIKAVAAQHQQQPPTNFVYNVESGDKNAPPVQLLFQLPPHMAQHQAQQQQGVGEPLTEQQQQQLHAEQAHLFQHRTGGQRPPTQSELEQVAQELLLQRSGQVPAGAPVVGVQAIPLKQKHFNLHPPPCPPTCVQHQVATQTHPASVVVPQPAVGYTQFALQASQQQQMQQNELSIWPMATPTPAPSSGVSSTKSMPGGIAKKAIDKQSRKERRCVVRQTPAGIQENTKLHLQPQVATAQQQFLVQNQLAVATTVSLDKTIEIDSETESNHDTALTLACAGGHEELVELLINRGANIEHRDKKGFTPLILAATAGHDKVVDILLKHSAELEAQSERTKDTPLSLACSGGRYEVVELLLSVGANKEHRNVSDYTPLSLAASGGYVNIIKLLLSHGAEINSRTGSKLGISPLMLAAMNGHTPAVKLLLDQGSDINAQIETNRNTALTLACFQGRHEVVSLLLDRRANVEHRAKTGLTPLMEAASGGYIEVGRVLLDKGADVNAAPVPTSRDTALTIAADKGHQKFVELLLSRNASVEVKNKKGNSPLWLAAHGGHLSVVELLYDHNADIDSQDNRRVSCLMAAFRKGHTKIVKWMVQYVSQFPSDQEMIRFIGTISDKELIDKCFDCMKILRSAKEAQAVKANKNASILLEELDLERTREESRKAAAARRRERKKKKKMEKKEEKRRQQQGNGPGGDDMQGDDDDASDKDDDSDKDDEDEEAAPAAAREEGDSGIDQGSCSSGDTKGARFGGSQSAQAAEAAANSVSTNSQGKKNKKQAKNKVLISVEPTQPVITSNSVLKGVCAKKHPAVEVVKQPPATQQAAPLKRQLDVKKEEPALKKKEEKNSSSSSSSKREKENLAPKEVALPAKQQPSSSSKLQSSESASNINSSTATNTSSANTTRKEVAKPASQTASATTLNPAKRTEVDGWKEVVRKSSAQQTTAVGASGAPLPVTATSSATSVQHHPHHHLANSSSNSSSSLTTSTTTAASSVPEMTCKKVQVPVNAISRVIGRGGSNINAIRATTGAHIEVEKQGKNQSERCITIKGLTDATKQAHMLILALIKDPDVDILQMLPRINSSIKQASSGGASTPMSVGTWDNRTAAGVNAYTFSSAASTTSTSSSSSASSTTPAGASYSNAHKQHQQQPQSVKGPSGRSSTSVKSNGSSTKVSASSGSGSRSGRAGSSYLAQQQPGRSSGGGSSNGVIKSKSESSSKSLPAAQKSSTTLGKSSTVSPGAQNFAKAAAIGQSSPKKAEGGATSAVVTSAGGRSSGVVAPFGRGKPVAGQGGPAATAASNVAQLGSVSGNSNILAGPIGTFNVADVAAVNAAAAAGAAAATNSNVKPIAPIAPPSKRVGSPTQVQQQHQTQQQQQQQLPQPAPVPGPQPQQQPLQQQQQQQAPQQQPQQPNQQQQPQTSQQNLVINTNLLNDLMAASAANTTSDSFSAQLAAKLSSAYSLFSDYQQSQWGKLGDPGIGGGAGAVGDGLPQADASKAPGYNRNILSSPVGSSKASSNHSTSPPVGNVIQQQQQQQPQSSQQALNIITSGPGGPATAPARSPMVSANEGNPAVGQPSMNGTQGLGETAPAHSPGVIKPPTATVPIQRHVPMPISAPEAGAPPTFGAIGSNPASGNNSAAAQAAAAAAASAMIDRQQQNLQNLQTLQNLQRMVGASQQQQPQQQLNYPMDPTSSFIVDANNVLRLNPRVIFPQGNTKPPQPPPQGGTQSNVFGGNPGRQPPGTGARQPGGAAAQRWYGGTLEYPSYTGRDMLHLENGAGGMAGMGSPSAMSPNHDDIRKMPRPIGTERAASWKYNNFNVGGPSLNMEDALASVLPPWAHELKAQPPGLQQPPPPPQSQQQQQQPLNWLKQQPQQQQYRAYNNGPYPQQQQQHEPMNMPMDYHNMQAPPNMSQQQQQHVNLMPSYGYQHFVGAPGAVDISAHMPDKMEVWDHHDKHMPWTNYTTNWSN

binding: binds
B1: Jupiter (protein, UniProt Q9I7K0 1-208)
chain: MAAYAAFKHVELYNVGKAKKRVLRPPGGGSSDIFGSEMPQTPRNVKNRMASNIFAAEKDNGVKNNVRQGAHRFYFIGDAPRRGQKTVDSHSRLFGEPTRPITPGKNHMKSSIPFGQNTEAVAAQKLLTTNGHYNGKSGSVSSASSSVSSSTENLKMNSGSRSEGNPVTGEGYKVVANEYSQRQESSNGGTPVINKNRIPPGGYSSGLW
modifications: biotinylated in vivo by TurboID-Mask (sites not given)
